Among all 350,000 compounds or so, about 6,000 (1.7%) were called active. This list was built around the results that the source calls inconclusive (neither active nor inactive); the mix of calls is not that of the screen. No stated cut-off is given here; in the data, active means CPE inhibition above about 20% (passing the limit was not always enough); inconclusive means no clear call, values can overlap the other calls; tested in BHK-21 cells.
Experiment: protection of cells from dengue 2 killing – plate reader, single concentration, primary screen (AID 651640);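 further: 0% = median of neutral control wells and 100% = median of positive control wells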
Conditions: DENV2-infected cells, cytopathic effect rescue, at 9.99 µM, stronger effect = higher value

SMILES | CPE inhibition
COc1ccc(-c2c(C(=O)c3ccccc3)[nH]c(N)c2C(N)=O)cc1OC | inconclusive: 41.3%
CC1C=NC(S(=O)(=O)N2CC[C@@H]3[C@@H](CO)N(C)c4ccc(-c5ccccc5F)cc4[C@@H]32)=N1 (stereo partly drawn) | inconclusive: 38.8%
C[C@H](CO)N1C[C@H](C)[C@H](CN(C)Cc2ccncc2)Oc2ncc(C#CC3CC3)cc2C1=O | inconclusive: 27.1%
CC=Cc1ccc2n(c1=O)C[C@@H]1[C@@H](CO)[C@H](C(=O)NCc3ccc4c(c3)OCO4)[C@H]2N1C(=O)CC (mixture of isomers) | inactive: -2.78%
N#C/C(=C(/O)c1ccc([N+](=O)[O-])s1)c1nc2ccccc2[nH]1 | inconclusive: 22.8%
COC(=O)C1=C(O)/C(=C\c2cc(C)n(-c3ccccc3F)c2C)N=C1C | inactive: -6.18%
COc1ccc(NC(=O)Nc2ccc3c(c2)C(=O)N([C@H](C)CO)C[C@H](C)[C@@H](CN(C)Cc2ccc(C(F)(F)F)cc2)OCCCC[C@H](C)O3)cc1 | inactive: 3.47%
COc1ccc2nc(SCC(=O)NCc3ccccc3)[nH]c2c1 | inactive: 1.03%
C[C@@H]1CN([C@H](C)CO)C(=O)c2cc(NC(=O)CCN3CCOCC3)ccc2O[C@H]1CN(C)Cc1ccc(Oc2ccccc2)cc1 | active: 25.3%
CCN(CC)CCCNC(=O)c1ccc(C)c(NC(=O)C2=C(C)OCCS2)c1 | inconclusive: 27.3%
CCn1cc(C(=O)NC(C)CCc2ccccc2)c(=O)c2cc(S(=O)(=O)N(C)C)ccc21 (stereo not drawn) | active: 50.6%
CCC(c1nnc(SC(C)C(=O)NC2CC2)n1-c1ccc(OC)cc1)N(C)C (stereo not drawn) | inconclusive: 38.7%
CC(C)(C)C(=O)CSc1nccc(=O)[nH]1 | inconclusive: 30.3%
C=CCNC(=O)Nc1ccc(Cl)cn1 | inactive: -7.56%
O=C(c1ccc2c(c1)OCO2)N1CC(=O)N2[C@H](C1)[C@@H](c1ccc(C#CCC3CCCC3)cc1)[C@@H]2CO | inactive: 9.34%
O[C@H]1C[C@H](c2ccccc2)N(CC2CCCCC2)C[C@@H]1n1cc(C2CC2)nn1 | inactive: 6.2%
CC12CC(NC(=O)N1c1cccc(C(=O)N3CCCCC3)c1)c1ccccc1O2 (stereo not drawn) | inconclusive: 44.2%
NC(=O)COC(=O)c1oc2ccccc2c1CSc1ccc(Cl)cc1 | inactive: 5.61%
CCCNC(=O)N1[C@H](CNC(=O)c2cccc(F)c2)[C@@H](c2ccccc2)[C@@H]1CO | active: 43.2%
O=C(N/N=C/c1ccccc1F)c1ccccc1OCc1ccccc1 | inactive: -1.24%
C[C@H]1CN([C@@H](C)CO)C(=O)c2cc(C#CCc3ccccc3)cnc2O[C@@H]1CN(C)C(=O)C1CC1 | inconclusive: 41.1%
Cc1ccc(CNS(=O)(=O)c2c(C)[nH]c(C)c2C(=O)N2CCCCC2)cc1 | inconclusive: 47.5%
CCCCCCCCN1[C@@H](CC(=O)O)c2ccc(C(F)(F)F)cc2S1(=O)=O | inconclusive: 37.5%
C[C@H](CO)N1C[C@H](C)[C@@H](CN(C)C(=O)Nc2ccc3c(c2)OCO3)Oc2c(NC(=O)Nc3ccccc3)cccc2C1=O | inconclusive: 35.8%
CC(C)NC(=O)Nc1ccc2c(c1)C(=O)N([C@H](C)CO)C[C@H](C)[C@H](CN(C)C(=O)Nc1ccccc1)OCCCC[C@H](C)O2 | inactive: 12.6%

SMILES | CPE inhibition
CC(=O)Nc1ccc2c(c1)C(=O)N(C)[C@H]1CC[C@H](CC(=O)NCc3ccccc3Cl)O[C@H]1CO2 | inconclusive: 73.8%
COCCNC(=O)C1CCCN(C(=O)c2cc(C)nn2C(C)(C)C)CC1 (stereo not drawn) | active: 21.3%
COc1ccc(/C(N)=N/OC(=O)Cc2cccs2)cc1 | inconclusive: 23.2%
CCC(=O)N1CC[C@@H]2[C@@H](CO)N(C)c3ccc(-c4ccc(F)cc4)cc3[C@@H]21 | inconclusive: 22.3%
CCN1C(=O)N[C@@H](CCc2ccccc2)[C@@H](C(=O)OC)[C@H]1C | inconclusive: 36.4%
CN1C[C@H]2[C@@H](c3ccccc31)[C@@H](CO)N2C(=O)C1CCCC1 | active: 26.7%
Cc1cccc(NC(=O)c2ccc3nccnc3c2)n1 | inconclusive: 33.6%
Cc1ccc2c(COC(=O)c3ccc(NC(=O)CC#N)cc3)cc(=O)oc2c1C | inconclusive: 25.5%
FC(F)(F)c1ccc(-c2nnc(-c3ccccn3)c(-c3ccccn3)n2)nc1 | inconclusive: 33.9%
C[C@@H]1CN([C@H](C)CO)C(=O)c2cc(NC(=O)Nc3ccc(F)cc3)ccc2O[C@@H](C)CCCCO[C@@H]1CN(C)Cc1ccc2c(c1)OCO2 | active: 23.2%
Cc1c(NS(=O)(=O)c2ccc(Br)cc2)c(=O)n(-c2ccccc2)n1C | inconclusive: 43.1%
COc1ccc(N(CC2CO2)S(=O)(=O)c2ccccc2)cc1 (stereo not drawn) | inconclusive: 26.8%
CN(C)C(=O)c1ccc(-c2ccc(C3[C@H]4CNC[C@@H]3N4C(=O)NC3CCCC3)cc2)cc1 (stereo partly drawn) | active: 71.5%
O=c1c(O)c(-c2cc(O)c(O)c(O)c2)oc2cc(O)cc(O)c12 | inactive: 7.96%
CC(=O)N1CCC(=NNc2ccc(S(=O)(=O)N3CCOCC3)cc2[N+](=O)[O-])CC1 | inconclusive: 65.8%
Cn1ccs/c1=N\C(=O)Nc1cccc(Cl)c1 | inactive: 9.01%
CC(C)Oc1ccc(S(=O)(=O)N2CCOCC2)cc1NC(=O)Cc1ccsc1 | active: 42.4%
O=C(Oc1ccc(/C=N/NC(=O)c2ccccn2)cc1)c1cccc(F)c1 | inconclusive: 23.6%
C[C@@H]1CN([C@H](C)CO)C(=O)c2cccc(NS(=O)(=O)c3cn(C)cn3)c2O[C@H]1CN(C)C(=O)Nc1ccc(C(F)(F)F)cc1 | inactive: -0.128%
COC(=O)c1ccccc1NC(=O)COC(=O)[C@H](C)NC(N)=O | inactive: 0.812%
C[C@@H]1CN([C@H](C)CO)C(=O)c2cccc(N(C)C)c2O[C@H]1CN(C)S(=O)(=O)c1cccs1 | inactive: 9.58%
O=C(c1ccc2c(c1)OCO2)N1CCCCN2[C@H](CO)[C@@H](c3ccc(-c4ccccc4)cc3)[C@@H]2C1 | active: 26.9%
CC(C)C#Cc1ccc2c(c1)O[C@H](CN(C)Cc1ccccc1)[C@H](C)CN([C@H](C)CO)S2(=O)=O | inactive: -0.098%
O=C(COC(=O)c1ccccc1-n1cnnn1)c1ccc(F)cc1 | inconclusive: 25.5%
COc1ccc(NC(=O)N(C)C[C@H]2OCCCC[C@H](C)Oc3ccc(NS(=O)(=O)c4ccccc4)cc3C(=O)N([C@H](C)CO)C[C@@H]2C)cc1 | inactive: 5.25%

SMILES | CPE inhibition
COc1cc(NC(C)=O)c2ncccc2c1NC(C)=O | inconclusive: 35.7%
CCC12CN(C(=O)c3ccco3)CC(CC)(CN(C(=O)c3ccco3)C1)C2=O | inactive: 1.99%
C[C@H]1CCCCO[C@H](CN(C)C)[C@@H](C)CN([C@@H](C)CO)C(=O)c2cc(NC(=O)c3ccccc3)ccc2O1 | inconclusive: 50.5%
COc1cc(NC(=O)CN2C(=O)NC3(CCOc4ccccc43)C2=O)cc(OC)c1 (stereo not drawn) | inconclusive: 57.1%
Cc1noc(C)c1C(=O)NC1=NCCS1 | inconclusive: 34.4%
Cc1nnc(NC(=O)CSc2nnc(CCNC(=O)c3ccccc3F)n2C)s1 | inactive: 9.94%
O=C(C[C@@H]1CC[C@@H]2[C@H](COC[C@H](O)CN2Cc2cc(F)ccc2F)O1)NCc1ccccc1 | inactive: -1.39%
COC(=O)C1=C(C)N(Cc2cccc(C(F)(F)F)c2)C(=NCc2ccccc2)NC1c1ccc(Cl)cc1 (stereo not drawn) | active: 27.3%
C[C@H]1CN([C@@H](C)CO)C(=O)c2cc(NC(=O)Cc3cn(C)c4ccccc34)ccc2O[C@H]1CN(C)C(=O)NC1CCCCC1 | inconclusive: 34.4%
CC(C)(C)c1cc(C(=O)NNc2cccc(Cl)c2)n(Cc2ccccc2)n1 | inactive: -1.03%
O=C(C[C@@H]1C[C@@H]2c3cc(NC(=O)C4CCOCC4)ccc3O[C@@H]2[C@H](CO)O1)NCc1cccnc1 | inactive: -3.91%
CC(C)(C)C(=O)C1=C(O)C(=O)N(Cc2ccccc2)C1c1ccccc1Cl (stereo not drawn) | inconclusive: 42.8%
Cc1oc2c(Cl)c(Cl)c(O)c(CN(C)C)c2c1C(=O)c1ccc(Cl)cc1 | inactive: -6.43%
C[C@H]1CN([C@@H](C)CO)C(=O)c2cccc(NC(=O)NC3CCCCC3)c2O[C@@H]1CN(C)CC1CCCCC1 | active: 29.7%
O=C(Nc1ccc(F)cc1)Nc1sccc1-c1nc2ccccc2s1 | inconclusive: 32.6%
CCOc1ccc(NC(=O)CN(C)C(=O)c2ccc(N3CCCC3)c([N+](=O)[O-])c2)cc1OCC | inconclusive: 24%
CCc1ccc(-c2cc(C(=O)N/N=C/c3ccco3)[nH]n2)cc1 | inconclusive: 25.4%
C[C@H](CO)N1C[C@H](C)[C@@H](CN(C)C(=O)c2ccccn2)Oc2ncc(C3=CCCC3)cc2C1=O | inconclusive: 28.6%
CC(=O)N1[C@@H](CO)[C@@H]2c3ccccc3N(C(=O)c3ccc(F)cc3)C[C@@H]21 | inconclusive: 20.8%
CCC(=O)Nc1ccc2c(c1)OC[C@@H](C)N(Cc1cccc(F)c1)C[C@H](C)[C@H](OC)CN(C)C2=O | inconclusive: 21.7%
COc1cc(Cl)ccc1OCc1cc(C(=O)NCCCN2CCCC2=O)no1 | inconclusive: 29.8%
C[C@H](CO)N1C[C@H](C)[C@@H](CN(C)C(=O)Cc2ccccc2)Oc2ncc(C#CCN(C)C)cc2C1=O | inactive: 3.8%
C[C@@H]1CN([C@@H](C)CO)C(=O)c2cc(C#C[C@@H](C)O)cnc2O[C@@H]1CN(C)CC1CCOCC1 | inconclusive: 38%

An excerpt from above in order of count of non-hydrogen atoms, low to high:
SMILES | CPE inhibition
O=C(Nc1ccc(F)cc1)Nc1sccc1-c1nc2ccccc2s1 | inconclusive: 32.6%
CCC12CN(C(=O)c3ccco3)CC(CC)(CN(C(=O)c3ccco3)C1)C2=O | inactive: 1.99%
C[C@@H]1CN([C@@H](C)CO)C(=O)c2cc(C#C[C@@H](C)O)cnc2O[C@@H]1CN(C)CC1CCOCC1 | inconclusive: 38%

Source: PubChem BioAssay AID651640 (Broad Institute, 2012)
